Measurements from publication PMC13557712, “Nim1-related kinases regulate septin organization and cytokinesis by modulating Hof1 at the cell division site” (eLife, 2026).
These are yes or no findings as the source states them, for the method shown. Some entries that bind do so weakly or less than the wild type.

T1: full-length Hof1 (S. cerevisiae) (UniProt Q05080)
T1 sequence: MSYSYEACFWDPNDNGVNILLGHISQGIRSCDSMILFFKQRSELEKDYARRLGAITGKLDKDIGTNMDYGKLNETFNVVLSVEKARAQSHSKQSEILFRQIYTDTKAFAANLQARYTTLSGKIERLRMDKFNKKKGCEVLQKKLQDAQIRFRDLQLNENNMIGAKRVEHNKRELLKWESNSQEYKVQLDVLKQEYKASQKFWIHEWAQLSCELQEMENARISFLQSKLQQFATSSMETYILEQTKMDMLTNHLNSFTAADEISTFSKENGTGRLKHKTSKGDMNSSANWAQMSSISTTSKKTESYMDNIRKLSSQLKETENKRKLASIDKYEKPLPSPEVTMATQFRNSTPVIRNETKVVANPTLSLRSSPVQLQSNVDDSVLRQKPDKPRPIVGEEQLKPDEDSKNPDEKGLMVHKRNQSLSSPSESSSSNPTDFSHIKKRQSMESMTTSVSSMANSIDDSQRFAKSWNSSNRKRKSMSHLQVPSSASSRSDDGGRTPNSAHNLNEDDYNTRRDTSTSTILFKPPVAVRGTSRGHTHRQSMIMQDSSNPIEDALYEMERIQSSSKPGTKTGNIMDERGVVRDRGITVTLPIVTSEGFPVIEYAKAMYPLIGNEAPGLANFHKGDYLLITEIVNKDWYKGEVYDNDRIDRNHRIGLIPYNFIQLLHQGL

T2: N-terminal Hof1 fragment (1–350 aa) (S. cerevisiae) (UniProt Q05080)
T2 sequence: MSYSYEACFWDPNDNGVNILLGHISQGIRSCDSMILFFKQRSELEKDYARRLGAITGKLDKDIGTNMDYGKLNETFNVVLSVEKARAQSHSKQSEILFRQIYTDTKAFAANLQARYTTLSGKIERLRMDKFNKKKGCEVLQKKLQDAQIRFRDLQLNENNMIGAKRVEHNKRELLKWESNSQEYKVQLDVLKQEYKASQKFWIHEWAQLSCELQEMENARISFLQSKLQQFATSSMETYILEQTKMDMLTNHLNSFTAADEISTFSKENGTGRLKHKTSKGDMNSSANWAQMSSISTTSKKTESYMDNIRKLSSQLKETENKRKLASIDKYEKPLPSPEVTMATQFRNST

B1: Gin4 Kinase Independent Domain (KID; 290–1142 aa) (domain or fragment, UniProt Q12263 290-1142)
chain: QKYPSIRDSKSIRGLPREDTYLTPLSESNSSIDATILQNLVILWHGRDPEGIKEKLREPGANAEKTLYALLYRFKCDTQKELIKQQQVKKRQSISSVSVSPSKKVSTTPQRRRNRESLISVTSSRKKPISFNKFTASSASSSNLTTPGSSKRLSKNFSSKKKLSTIVNQSSPTPASRNKRASVINVEKNQKRASIFSTTKKNKRSSRSIKRMSLIPSMKRESVTTKLMSTYAKLAEDDDWEYIEKETKRTSSNFATLIDEIFEYEKYEQIRKEKEELERKVREAKAREELERRRRKQEEKERARKLLEKEDLKRKQEELKKQIEIDISDLEQELSKHKEEKLDGNIRSISAPMENEEKNINHLEVDIDNILRRRNFSLQTRPVSRLDPGIMFSSPTEEVSPVEPKRTENERLTTEKKILETIRRSKFLGSSFNIDKELKLSKMEYPSIIAPQRLSEERVVSDSNDGYESLILPKDGNGVSQLKDSTATTAPVSDGRLRKISEIRVPQFTRKSRHFSESNKRLSVLSMYSTKESFTNLVDILKNGNLDVNNQQSQRIPTPRSADDSEFLFETVNEEAEYTGNSSNDERLYDVGDSTIKDKSALKLNFADRFNGSNEAKQTDNLHLPILPPLNGDNELRKQNSQEGDQAHPKIKSMIPESGSSSHTEKEEENEEKEEKKPEQHKQEEDQEKREKVVDDMEPPLNKSVQKIREKNAGSQAKDHSKDHLKEHKQDKNTAIGNGSFFRKFSKSSDKTMELYAKISAKQLFNGLEKLLRGWTQYGLKNIKSHPNNLTLTGKLSSDNIFSLRSTLFEVNIYPRGKMSVVQFKKVSGSFKAVKKLVNEVENVLNKEGVLQK
B2: 6His-bdSUMO-Gin4-KA1 (1003–1142 aa) (domain or fragment, S. cerevisiae, UniProt Q12263 1003-1142, looked up)
chain: GSQAKDHSKDHLKEHKQDKNTAIGNGSFFRKFSKSSDKTMELYAKISAKQLFNGLEKLLRGWTQYGLKNIKSHPNNLTLTGKLSSDNIFSLRSTLFEVNIYPRGKMSVVQFKKVSGSFKAVKKLVNEVENVLNKEGVLQK
notes: also called 6xHis-bdSUMO-Gin4^KA1; source: E. coli BL21-DE3, purified (Ni-NTA, buffer exchange); not shown: His6, N-terminal, kept; bdSUMO, N-terminal, kept
B3: full-length Gin4 (protein, UniProt Q12263 1-1142)
chain: MAINGNSIPAIKDNTIGPWKLGETLGLGSTGKVQLARNGSTGQEAAVKVISKAVFNTGNVSGTSIVGSTTPDALPYGIEREIIIMKLLNHPNVLRLYDVWETNTDLYLVLEYAEKGELFNLLVERGPLPEHEAIRFFRQIIIGVSYCHALGIVHRDLKPENLLLDHKYNIKIADFGMAALETEGKLLETSCGSPHYAAPEIVSGIPYQGFASDVWSCGVILFALLTGRLPFDEEDGNIRTLLLKVQKGEFEMPSDDEISREAQDLIRKILTVDPERRIKTRDILKHPLLQKYPSIRDSKSIRGLPREDTYLTPLSESNSSIDATILQNLVILWHGRDPEGIKEKLREPGANAEKTLYALLYRFKCDTQKELIKQQQVKKRQSISSVSVSPSKKVSTTPQRRRNRESLISVTSSRKKPISFNKFTASSASSSNLTTPGSSKRLSKNFSSKKKLSTIVNQSSPTPASRNKRASVINVEKNQKRASIFSTTKKNKRSSRSIKRMSLIPSMKRESVTTKLMSTYAKLAEDDDWEYIEKETKRTSSNFATLIDEIFEYEKYEQIRKEKEELERKVREAKAREELERRRRKQEEKERARKLLEKEDLKRKQEELKKQIEIDISDLEQELSKHKEEKLDGNIRSISAPMENEEKNINHLEVDIDNILRRRNFSLQTRPVSRLDPGIMFSSPTEEVSPVEPKRTENERLTTEKKILETIRRSKFLGSSFNIDKELKLSKMEYPSIIAPQRLSEERVVSDSNDGYESLILPKDGNGVSQLKDSTATTAPVSDGRLRKISEIRVPQFTRKSRHFSESNKRLSVLSMYSTKESFTNLVDILKNGNLDVNNQQSQRIPTPRSADDSEFLFETVNEEAEYTGNSSNDERLYDVGDSTIKDKSALKLNFADRFNGSNEAKQTDNLHLPILPPLNGDNELRKQNSQEGDQAHPKIKSMIPESGSSSHTEKEEENEEKEEKKPEQHKQEEDQEKREKVVDDMEPPLNKSVQKIREKNAGSQAKDHSKDHLKEHKQDKNTAIGNGSFFRKFSKSSDKTMELYAKISAKQLFNGLEKLLRGWTQYGLKNIKSHPNNLTLTGKLSSDNIFSLRSTLFEVNIYPRGKMSVVQFKKVSGSFKAVKKLVNEVENVLNKEGVLQK
B4: full-length Elm1 (protein, UniProt P32801 1-640)
chain: MSPRQLIPTLIPEWAPLSQQSCIREDELDSPPITPTSQTSSFGSSFSQQKPTYSTIIGENIHTILDEIRPYVKKITVSDQDKKTINQYTLGVSAGSGQFGYVRKAYSSTLGKVVAVKIIPKKPWNAQQYSVNQVMRQIQLWKSKGKITTNMSGNEAMRLMNIEKCRWEIFAASRLRNNVHIVRLIECLDSPFSESIWIVTNWCSLGELQWKRDDDEDILPQWKKIVISNCSVSTFAKKILEDMTKGLEYLHSQGCIHRDIKPSNILLDEEEKVAKLSDFGSCIFTPQSLPFSDANFEDCFQRELNKIVGTPAFIAPELCHLGNSKRDFVTDGFKLDIWSLGVTLYCLLYNELPFFGENEFETYHKIIEVSLSSKINGNTLNDLVIKRLLEKDVTLRISIQDLVKVLSRDQPIDSRNHSQISSSSVNPVRNEGPVRRFFGRLLTKKGKKKTSGKGKDKVLVSATSKVTPSIHIDEEPDKECFSTTVLRSSPDSSDYCSSLGEEAIQVTDFLDTFCRSNESLPNLTVNNDKQNSDMKTDRSESSSHSSLKIPTPIKAMIRLKSSPKENGNRTHINCSQDKPSSPLMDRTVGKRTVNNSGARKLAHSSNILNFKAYINSEDSDIRETVEDVKTYLNFADNGQI
B5: Elm1 C-terminal fragment (421–640 aa) (domain or fragment, UniProt P32801 421-640)
chain: SSSSVNPVRNEGPVRRFFGRLLTKKGKKKTSGKGKDKVLVSATSKVTPSIHIDEEPDKECFSTTVLRSSPDSSDYCSSLGEEAIQVTDFLDTFCRSNESLPNLTVNNDKQNSDMKTDRSESSSHSSLKIPTPIKAMIRLKSSPKENGNRTHINCSQDKPSSPLMDRTVGKRTVNNSGARKLAHSSNILNFKAYINSEDSDIRETVEDVKTYLNFADNGQI

Each binder was assayed against T1, full-length Hof1 (S. cerevisiae) (assay: two-hybrid; LexA DNA-binding domain (pMM5S) and Gal4 activation domain (pMM6S) fusions; SGY37 and YPH500 mated, SC-His-Leu, 30°C, X-Gal overlay for β-galactosidase, scanned after 14–16 hr).

Binder	binding
B1	binds
B2	binds
B3	no binding
B4	no binding
B5	no binding

What follows are binders tested against T2, N-terminal Hof1 fragment (1–350 aa) (S. cerevisiae) in the same assay as above.

Binder	binding
B2	binds
